Assay results published in PubChem BioAssay AID1259354 (Paczesny and Yang Labs, IUPUI and University of Michigan, 2018).
The whole screen tested about 78,000 compounds, of which about 1,800 (2.3%) were called active. The shares of active, inactive and inconclusive entries below differ from those in the screen. No stated cut-off is given here; in the data, active means inhibition above about 30%; inconclusive means mostly about 10% to 28%; inactive means weaker than that.

Chains of the proteins cited; added tags and fusions are not shown. Lines headed by an entry give the natural chain unless they say otherwise; changes in a name come on top.
UniProt Q01638: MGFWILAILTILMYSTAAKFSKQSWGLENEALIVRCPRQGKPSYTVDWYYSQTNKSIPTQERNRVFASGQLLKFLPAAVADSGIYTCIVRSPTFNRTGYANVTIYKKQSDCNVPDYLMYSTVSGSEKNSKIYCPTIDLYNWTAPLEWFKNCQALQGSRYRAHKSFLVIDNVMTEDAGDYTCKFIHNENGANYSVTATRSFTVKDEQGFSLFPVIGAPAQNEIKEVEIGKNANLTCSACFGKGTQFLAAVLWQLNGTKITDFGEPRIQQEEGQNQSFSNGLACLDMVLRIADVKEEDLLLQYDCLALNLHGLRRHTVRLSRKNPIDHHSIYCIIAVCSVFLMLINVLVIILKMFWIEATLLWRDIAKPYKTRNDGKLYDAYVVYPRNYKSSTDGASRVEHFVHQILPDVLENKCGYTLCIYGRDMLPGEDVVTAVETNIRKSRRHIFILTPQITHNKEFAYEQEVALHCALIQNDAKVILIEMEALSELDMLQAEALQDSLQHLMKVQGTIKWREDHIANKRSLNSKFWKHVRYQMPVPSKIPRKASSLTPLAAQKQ

Target: Interleukin-1 receptor-like 1 (Homo sapiens) (UniProt Q01638)
Experiment: blocks human ST2 binding to IL-33, primary screen, biochemical, AlphaLISA (AID 1259354)
Settings: AlphaLISA ST2-Fc/biotin-IL-33 interaction, 1 h; at 17 µM, stronger effect = higher value

Row | Structure (SMILES) | inhibition
1 | COc1ccc(NC(=O)c2cn(C)c(=O)c3c2c2ccccc2n3C)c(OC)c1 | inactive
2 | CCN1CCCC1CNS(=O)(=O)c1ccc2c(c1)CCN2C(=O)C1CC1 (stereo unspecified) | inactive
3 | CCc1ncc(C(=O)N(C)CCc2nc3ccc(OC)cc3[nH]2)cn1 | inconclusive: 13%
4 | CC#CC(=O)N1CCC(CCC(=O)Nc2cccc(C)c2)CC1 | inconclusive: 18%
5 | COc1ccc2nc3oc(C(=O)Nc4cccc(SC)c4)cc3cc2c1 | inconclusive: 26%
6 | CCN1C(=O)C2[C@H](C1=O)C1c3ccccc3C2(C(=O)O)c2ccccc21 (stereo partly specified) | inconclusive: 15%
7 | CCC1CCc2c(sc(NC(=O)CCC(=O)O)c2C(N)=O)C1 (stereo unspecified) | inactive
8 | COCc1nnc(NC(=O)c2ccc(S(=O)(=O)N3CCCCC3C)cc2)o1 (stereo unspecified) | inconclusive: 10%
9 | COc1cccc(C2C3=C(CC(C)(C)CC3=O)OC(N)=C2[N+](=O)[O-])c1 (stereo unspecified) | inconclusive: 14%
10 | COc1ccc2c(c1)c(C(=O)N1CCC3(CCCN(C)C3=O)C1)c(C)n2C (stereo unspecified) | inactive
11 | CCOc1ccc(CN(C(=O)c2scc3c2OCCO3)C2CC2)cc1 | inconclusive: 12%
12 | CC1CCCN(S(=O)(=O)c2ccc3[nH]c(=O)oc3c2)C1 (stereo unspecified) | inconclusive: 12%
13 | COc1ccc(C)cc1Nc1nc(-c2nnc(-c3ccc(C)cc3)o2)nc2ccccc12 | inconclusive: 13%
14 | O=C(Nc1nnc(Cc2c[nH]c3ccccc23)s1)c1ccccc1F | inconclusive: 16%
15 | CCN1CCCC1CNC(=O)CCC1CCN(Cc2cnc(SC)nc2)CC1 (stereo unspecified) | inconclusive: 10%
16 | Cc1ccc(C2=N/C(=C\c3ccco3)C(=O)O2)cc1[N+](=O)[O-] | inactive
17 | O=[N+]([O-])c1cc2c(cc1C=Nc1ccccc1C(F)(F)F)OCO2 | inconclusive: 19%
18 | O=C1NN(c2ccc(Br)cc2)C(=O)/C1=C\c1cccn1-c1ccc([N+](=O)[O-])cc1 | active: 33%
19 | CN(c1ncccc1C(=O)N1CCC(N2CCCC2=O)CC1)C1CCCCC1 | inactive
20 | CCN(CC)C(=O)C1CCCN(Cc2cc(OC)c(O)c(OC)c2)C1 (stereo unspecified) | inactive
21 | Cc1cccc(CN2CCC3(CCOCC3)CC2)c1O | inconclusive: 10%
22 | Cc1cccc(C)c1NC(=O)CSc1nnc2cc(C)c3ccccc3n12 | inconclusive: 20%
23 | CSc1oc(-c2ccco2)nc1S(=O)(=O)c1ccccc1 | inconclusive: 16%
24 | O=C(O)CNC(=O)c1ccc(Cl)cc1 | inactive

An excerpt of these results, in markdown:

| Row | Structure (SMILES) | inhibition |
| --- | --- | --- |
| 3 | CCc1ncc(C(=O)N(C)CCc2nc3ccc(OC)cc3[nH]2)cn1 | inconclusive: 13% |
| 22 | Cc1cccc(C)c1NC(=O)CSc1nnc2cc(C)c3ccccc3n12 | inconclusive: 20% |

More entries follow:

Row | Structure (SMILES) | inhibition
25 | O=C(NCCN1CCOCC1)c1ccc2c(c1)N(Cc1cccc(Cl)c1)C(=O)CS2 | inactive
26 | O=C(NCc1ccc(Cl)c(Cl)c1)c1ccccc1Br | inactive
27 | CC(C)(C)c1cc(Br)cc(C=O)c1O | inconclusive: 10%
28 | CC(=O)Nc1ccc(NC(=O)CCN2C(=O)c3ccccc3C2=O)cc1 | inconclusive: 19%
29 | COc1ccc2c(Cl)c(C(=O)NC3CCS(=O)(=O)C3)sc2c1 (stereo unspecified) | inconclusive: 20%
30 | CCOc1ccccc1NC(=O)CN(c1cccc(OC)c1)S(=O)(=O)c1ccc(C)cc1 | inconclusive: 10%
31 | O=C1c2ccccc2C(=O)N1CC(=O)N1CCc2ccccc21 | inactive
32 | COc1ccc(-n2c(Cn3cccn3)n[nH]c2=O)cc1 | inconclusive: 23%
33 | O=C(c1ccc([N+](=O)[O-])o1)N1CCc2ccccc21 | inconclusive: 15%
34 | Cc1ccc(Nc2cc(C)nc(Nc3ccc(NC(=O)c4ccccc4F)cc3)n2)cc1 | inconclusive: 11%
35 | O=C(NCc1ccc2[nH]c3c(c2c1)CCCC3)c1cc(C2CC2)on1 | inconclusive: 22%
36 | CC[n+]1c(/C=C/C=C2/N(C)c3ccccc3C2(C)C)sc2ccccc21 | inconclusive: 12%
37 | CCCSc1nc2c(c(=O)n1-c1ccc(Cl)cc1)SCC2 | inactive
38 | CC(C)(C)S(=O)(=O)c1ccsc1S(C)(=O)=O | inactive
39 | Cc1cc(=O)oc2cc(OCC(=O)N3CCCCCC3)ccc12 | inconclusive: 15%
40 | COc1ccccc1CN1CC(C(=O)NCCCc2cccnc2)CCC1=O (stereo unspecified) | inconclusive: 17%
41 | Cc1n[nH]c(C)c1S(=O)(=O)N1CCN(c2cccc(Cl)c2)CC1 | inactive
42 | Cc1ccc(Nc2ncnc3[nH]ncc23)cc1 | inactive
43 | COC(=O)CSC1=C(C#N)C(c2cccc(Cl)c2Cl)CC(=O)N1 (stereo unspecified) | inactive
44 | Cc1nnc(NC(=O)c2ccc([N+](=O)[O-])cc2Cl)s1 | inactive
45 | Cc1ccc(C)c(NC(=O)/C=C/c2ccc3c(c2)OCO3)c1 | inconclusive: 19%
46 | CCOc1ccc(NC(=O)c2oc3ccccc3c2NC(=O)c2cc3ccccc3oc2=O)cc1 | inactive
47 | O=C1CCCN1C1CCCN(Cc2cc(-c3ccccn3)no2)C1 (stereo unspecified) | inconclusive: 13%
48 | COc1ccc(N=C2C(=O)Nc3ccc(C)cc32)cc1 | inconclusive: 15%

Row | Structure (SMILES) | inhibition
49 | COc1ccc2oc(=N)c(C(=O)Nc3ccccc3C)cc2c1 | inconclusive: 24%
50 | CC(C)c1nc(CCN2CCCCCC2=O)n(-c2ccccc2F)n1 | inconclusive: 13%
51 | Fc1ccc(-c2csc(CN3CCCC(N4CCCC4)C3)n2)cc1 (stereo unspecified) | inconclusive: 17%
52 | O=C(O)c1ccc(CN2Cc3[nH]cnc3C[C@H]2c2nc(-c3cccc([N+](=O)[O-])c3)no2)cc1 | inactive
53 | CCOc1ccccc1NC(=O)COc1ccccc1Br | inactive
54 | O=C(O)C1CCC(c2ccccc2)CC1 (stereo unspecified) | inactive
55 | Cc1ccc(N(CC2=NCCN2)c2cccc(O)c2)cc1 | inconclusive: 13%
56 | CN1CCCn2nc(C(=O)N3CCc4c([nH]c5ccccc45)C3)cc2C1 | inconclusive: 18%
57 | Cc1ccc(N2NC(=O)/C(=C/c3ccc(-c4cccc([N+](=O)[O-])c4)o3)C2=O)cc1C | active: 61%
58 | O=C(c1cc2ccccc2o1)N1CCN=C1SCc1cccc([N+](=O)[O-])c1 | inconclusive: 25%
59 | COc1ccc(-c2csc(/C(C#N)=C/c3ccccc3OC)n2)cc1 | active: 40%
60 | CCOc1ccc(C(=O)NCc2ccco2)cc1Cl | inconclusive: 14%
61 | CN(CC1CCN(CCc2ccc(Cl)cc2)CC1)C(=O)c1cccc(N(C)C)c1 | inconclusive: 23%
62 | Cc1cccc(C(C(=O)NCCc2nncn2C)N(C)C)c1 (stereo unspecified) | inactive
63 | CC[C@H]1CN(C(C)=O)CC[C@H]1CC(=O)NC1CC1 | inconclusive: 14%
64 | Clc1ccc2nc(CSc3nncn3-c3ccccc3)c(Cl)n2c1 | inactive
65 | CC1(C)CC(CCNCc2ccc(F)cc2)(Cc2ccccc2)CCO1 (stereo unspecified) | inconclusive: 27%
66 | COc1cccc(NC(=O)C(=O)NCc2cccc(C)c2)c1 | inconclusive: 18%
67 | Cc1nnc(NC(=O)NCCC2CCCCCC2)s1 | inconclusive: 12%
68 | Cc1ccc(C(=O)N[C@H]2CO[C@H]3[C@@H]2OC[C@@H]3n2nnnc2Oc2cccc(N(C)C)c2)cc1 | active: 81%
69 | CCNc1ncc(C(=O)N2C[C@@H]3C4CCC(CC4)[C@@H]3C2)cn1 | inactive
70 | CC(C)c1cc(C(=O)N2CCCN(C)C3(CCN(C)CC3)C2)n[nH]1 | inconclusive: 20%
71 | Cc1nc2ncccn2c1C(=O)NCc1cnc2c(c1)CCC2 | inactive
72 | O=C1NC(=O)N(c2ccccc2F)C(=O)/C1=C/c1cn(CC(=O)N2CCCC2)c2ccccc12 | inconclusive: 11%

Row | Structure (SMILES) | inhibition
73 | O=C(Nc1ccc2c(c1)CN(C(=O)Cn1cncn1)CC2)C1CCCO1 (stereo unspecified) | inactive
74 | O=C(c1ccccc1Cl)N1CCN=C1SCc1ccccc1F | inactive
75 | Cc1noc(C)c1CCC(=O)NC(C)c1cnn(-c2cccc3ccccc23)c1C (stereo unspecified) | inactive
76 | O=[N+]([O-])c1nn(-c2ccccc2)n(O)c1=NCCc1ccccc1 | inconclusive: 15%
77 | CCOC(=O)c1coc(N2CCCC3(C2)C(=O)N(C)c2ccccc23)n1 (stereo unspecified) | inconclusive: 11%
78 | NC(=O)/C(=C/c1ccc2c(c1)OCO2)NC(=O)c1ccccc1Br | inconclusive: 15%
79 | CN(C)C1CCCN(C(=O)CCc2ccccc2Cl)CC1 (stereo unspecified) | inconclusive: 14%
80 | COc1ccccc1C1CC(c2ccc(F)cc2)Nc2nc(N)nn21 (stereo unspecified) | inconclusive: 10%
81 | O=C(NC1CC(=O)N(CCCc2ccccc2)C1)c1ccco1 (stereo unspecified) | inconclusive: 18%
82 | COc1ccc(/C=C/C(=O)Nc2ncc(S(=O)(=O)c3ccc([N+](=O)[O-])cc3)s2)cc1OC | inactive
83 | Cc1ccc(N2C(=O)c3c(C)nc4ccccc4c3C2=O)cc1 | inconclusive: 22%
84 | CC(=O)N[C@@H]1C[C@H](CC(C)C)O[C@H](c2coc3ccc(Cl)cc3c2=O)C1 | inconclusive: 10%
85 | CSc1cccc(CN2CCCC(CNC(=O)c3cc4ccccc4[nH]3)C2)c1 (stereo unspecified) | inconclusive: 14%
86 | CCOCCCNC(=O)c1c[nH]c2ccc(S(=O)(=O)Nc3ccccc3F)cc2c1=O | inactive
87 | COC(=O)C1=C(C)NC(C)=C(C#N)C1c1cccs1 (stereo unspecified) | inactive
88 | CN(Cc1cc(-c2cccnc2)no1)C(=O)[C@@H]1C[C@H]1c1ccccc1 | inconclusive: 15%
89 | CCCc1[nH]nc2c1C(c1ccc(SC)cc1)C(C#N)=C(N)O2 (stereo unspecified) | inconclusive: 11%
90 | Cc1cc(CN(C)CC(=O)NCCc2cccc(Cl)c2)n[nH]1 | inconclusive: 12%
91 | CCN1C(=O)C(O)(CC(=O)c2ccc(OC)c(OC)c2)c2ccccc21 (stereo unspecified) | inactive
92 | COc1cc(OC)c(CN2CCN(c3ccccc3C)CC2)cc1Br | inconclusive: 17%
93 | COC(=O)c1cc(NS(=O)(=O)c2ccc3c(c2)CCC(=O)N3)cc(C(=O)OC)c1 | inconclusive: 11%
94 | Cc1cc(C)cc(OCCCOc2ccc(/C=C3/C(=N)N4C=CSC4=NC3=O)cc2)c1 | inconclusive: 14%
95 | COCC(=O)Nc1cc(C(=O)N(C)CCc2cnn(C)c2)cc2nc(-c3ccccc3)n(C)c12 | inactive
96 | COc1cc(NC(=O)CCC2CCCN(Cc3cnn(-c4ccccc4)c3)C2)cc(OC)c1 (stereo unspecified) | inconclusive: 11%

Sorted by molar mass (rising): some entries from above.
Row | Structure (SMILES) | inhibition
67 | Cc1nnc(NC(=O)NCCC2CCCCCC2)s1 | inconclusive: 12%
49 | COc1ccc2oc(=N)c(C(=O)Nc3ccccc3C)cc2c1 | inconclusive: 24%
77 | CCOC(=O)c1coc(N2CCCC3(C2)C(=O)N(C)c2ccccc23)n1 (stereo unspecified) | inconclusive: 11%
11 | CCOc1ccc(CN(C(=O)c2scc3c2OCCO3)C2CC2)cc1 | inconclusive: 12%
29 | COc1ccc2c(Cl)c(C(=O)NC3CCS(=O)(=O)C3)sc2c1 (stereo unspecified) | inconclusive: 20%
8 | COCc1nnc(NC(=O)c2ccc(S(=O)(=O)N3CCCCC3C)cc2)o1 (stereo unspecified) | inconclusive: 10%
92 | COc1cc(OC)c(CN2CCN(c3ccccc3C)CC2)cc1Br | inconclusive: 17%
